For test [1], the target named is myc-tagged mutant parkin R275W (human) (UniProt O60260). Briefly: co-IP; HEK cells co-transfected with myc-parkin variant and Flag-Bax variant; lysates incubated with myc-conjugated agarose beads overnight at 4 °C; washed 3 x 15 min in STEN buffer (50 mM Tris pH 7.6, 150 mM NaCl, 2 mM EDTA, 0.2% NP-40); blots probed with Flag M2 antibody.
For test [2], the target named is myc-tagged wild-type parkin (human) (UniProt O60260). The description is as above.
Test [3] has as its target WT human parkin stably expressed in CHO cells (human) (UniProt O60260). Briefly: co-IP; CHO-Parkin cells transfected with GFP-Bax variant; lysates precipitated with monoclonal parkin antibody PRK8 and Protein-G agarose overnight at 4 °C; blots probed with GFP antibody.

By UniProt entry, the sequences of proteins in these tests, tags left out.
UniProt Q07812: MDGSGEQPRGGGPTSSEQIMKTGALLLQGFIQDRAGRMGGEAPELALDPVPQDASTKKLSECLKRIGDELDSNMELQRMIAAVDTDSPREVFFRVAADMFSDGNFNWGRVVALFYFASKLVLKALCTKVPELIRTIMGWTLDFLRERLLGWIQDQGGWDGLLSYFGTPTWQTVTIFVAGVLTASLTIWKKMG

Data on two substances can be found in publication PMC4123072.

These are yes or no findings as the source states them, for the method shown. Binding seen in cells or lysates may run through a third protein. Some entries that bind do so weakly or less than the wild type.

Take “Flag-tagged wild-type human Bax (from UniProt Q07812 1-192)”: the binding entry in test [1] and in test [2] was “binds” throughout.
Take “GFP-tagged wild-type Bax (from UniProt Q07812 1-192)”: in test [3], the binding result is given as “binds”.
